# Experimental data taken from PubChem BioAssay AID720504 (National Center for Advancing Translational Sciences (NCATS), 2013).
# Amino acid sequences for entries named in this document (tags omitted).
# UniProt P53350, whole entry, looked up: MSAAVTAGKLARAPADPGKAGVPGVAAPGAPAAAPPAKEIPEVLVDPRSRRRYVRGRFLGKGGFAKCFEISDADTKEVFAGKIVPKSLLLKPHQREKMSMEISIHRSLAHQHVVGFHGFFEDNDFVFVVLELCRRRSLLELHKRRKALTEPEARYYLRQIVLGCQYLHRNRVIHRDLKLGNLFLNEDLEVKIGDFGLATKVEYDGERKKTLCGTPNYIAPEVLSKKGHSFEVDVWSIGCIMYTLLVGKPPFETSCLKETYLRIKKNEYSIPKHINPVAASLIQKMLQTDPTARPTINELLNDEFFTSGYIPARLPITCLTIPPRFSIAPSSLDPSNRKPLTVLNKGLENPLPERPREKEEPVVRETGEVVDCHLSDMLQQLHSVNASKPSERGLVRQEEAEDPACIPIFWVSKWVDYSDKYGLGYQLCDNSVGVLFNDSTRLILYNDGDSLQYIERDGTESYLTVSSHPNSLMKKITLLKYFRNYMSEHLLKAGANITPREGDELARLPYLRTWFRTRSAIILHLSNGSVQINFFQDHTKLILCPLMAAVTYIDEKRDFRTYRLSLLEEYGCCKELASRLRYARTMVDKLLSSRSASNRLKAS
# The campaign covered roughly 360,000 compounds. About 10,000 (2.8%) were called active. Inconclusive means that the source gave no clear call. Such entries were picked first, then a sample of the others. Calls come from the whole dose curve; as a rule, active = well fitted inhibition curve with a large enough effect; inconclusive = small, poorly fitted or top-dose-only effect; inactive = flat fitted curve, though single readings scatter. Potencies of inconclusive entries are doubtful fits and often do not repeat.
# Target: Serine/threonine-protein kinase PLK1 (Homo sapiens) (UniProt P53350)
# Assay: qHTS for Inhibitors of PLK1-PDB (polo-like kinase 1 - polo-box domain): Primary Screen; note: nearly all actives have a fitted effect of over 65% in size; for max response, negative = inhibition: series mostly up to about 57 µM
# Settings: Plk1 PBD binding of FITC phosphopeptide, fluorescence polarization
# % is set by controls: 0 for no effect and ±100 for the full control effect; potency is the fitted concentration of half-maximal effect.
Structure (SMILES),"max response, negative = inhibition",Potency
CCCc1ccc(OCC(=O)NNC(=S)NC(=O)c2ccco2)cc1,inconclusive: -31.1% [inhibitor],
Cc1cc(NC(=O)COC(=O)CSc2nc3cc(Cl)ccc3n2Cc2ccccc2)no1,,"inconclusive: 29.9 µM [inhibitor, partial curve]"
COc1cccc(C(c2c(C)[nH]n(-c3ccccc3)c2=O)c2c(C)[nH]n(-c3ccccc3)c2=O)c1OC,,active: 11.9 µM
Cc1ccc(CNC(=O)c2nn(C)c3c2CS(=O)(=O)c2ccccc2-3)cc1,,active: 29.9 µM
CC1(C)CC(=O)C2=C(C1)c1c(ccc3ccccc13)NC2c1ccc(OCC(=O)O)cc1 (stereo unspecified),,"inconclusive: 75.2 µM [inhibitor, partial curve]"
CC(=O)n1c(C=Nc2ccc(Cl)cc2)c(O)c2ccccc21,,active: 6.7 µM
CCCCN1C(=O)C(CC(=O)NCc2cccs2)CC(C(=O)N2CCOCC2)=C1C (stereo unspecified),inactive: 5.78%,
COc1cccc(C(=O)N2CCN(C3CCCCC3)CC2)c1,inactive: -7.44%,
CCc1ccc2cccc3c2c1N=CN3C,,"inconclusive: 26.7 µM [inhibitor, single point]"
NC(=O)c1cc(-c2ccccc2)sc1NC(=O)Cc1ccc(S(=O)(=O)N2CCOCC2)s1,,"inconclusive: 67 µM [inhibitor, partial curve]"
COc1cc2c(cc1OC)C(c1cc(OC)c(OC)cc1[N+](=O)[O-])N(C(C)=O)CC2 (stereo unspecified),inactive: -5.56%,
CCSc1ccc(C(=O)NCC(=O)O)cc1,,"inconclusive: 29.9 µM [inhibitor, partial curve]"
Cc1c(C)c2cc(Cl)c(OCc3nn[nH]n3)cc2oc1=O,inactive: -6.65%,
COc1ccc(Cc2nnc(NC(=O)Cc3cccs3)s2)cc1,,"inconclusive: 10.6 µM [inhibitor, partial curve]"
Cc1ccc(S(=O)(=O)NC(=S)c2ccccc2)cc1,inactive: -21.4%,
CC1(C)OC(=O)C2=C(C[C@@H](CCc3ccccc3)O[C@H]2C2CCCC2)O1,inactive: -3.32%,
S=c1[nH]nc(-c2ccc(Cl)cc2Cl)n1-c1ccc(Cl)cc1,,"inconclusive: 26.7 µM [inhibitor, single point]"
C=CCN1C(=O)/C(=c2\sc3nc(=O)c(Cc4ccccc4Cl)nn3c2=O)c2ccccc21,,active: 11.9 µM
O=C(CN1C(=O)/C(=C\c2cccc(Br)c2)Oc2ccccc21)NCCCN1CCOCC1,,active: 26.7 µM
OC(c1nc2ccccc2[nH]1)C(O)C(O)C(O)c1nc2ccccc2[nH]1 (stereo unspecified),,"inconclusive: 21.2 µM [inhibitor, partial curve]"
CCOc1ccccc1NC(=S)C(=C([O-])c1ccc2c(c1)OCCO2)[n+]1ccc(CC)cc1,,active: 26.7 µM
COc1ccc(S(=O)(=O)N2CCN(C(=O)C3COc4ccccc4O3)CC2)cc1 (stereo unspecified),,active: 10.6 µM
O=C1CC(N2CCC(c3nc4ccccc4[nH]3)CC2)C(=O)N1c1ccccc1F (stereo unspecified),inconclusive: -32.5% [inhibitor],
COc1ccc(Cl)cc1-c1nc(SCC(=O)NCC2CCCO2)n[nH]1 (stereo unspecified),,"inconclusive: 29.9 µM [inhibitor, partial curve]"

Structure (SMILES),"max response, negative = inhibition",Potency
Cc1nc(Nc2ccc(Cl)cc2)c2oc3ccccc3c2n1,,active: 26.7 µM
CCOC(=O)c1c(C)nsc1NCc1ccccc1,,"inconclusive: 2.99 µM [inhibitor, partial curve]"
COc1ccc(N2CCC(CNC(=S)Nc3ccc(C)cc3C)C2)cc1 (stereo unspecified),,"inconclusive: 29.9 µM [inhibitor, single point]"
C=C1C(=O)[C@]23C[C@H]1CC[C@H]2[C@]1(C)[C@@H](OC(C)=O)CC[C@@](C)(C(=O)OC)[C@H]1C[C@@H]3OC(C)=O,,"inconclusive: 21.2 µM [inhibitor, single point]"
C=CCNC(=O)C1CC(=O)N(c2ccc(OCC(=O)Nc3ccc(Cl)cc3)cc2)C1 (stereo unspecified),,"inconclusive: 26.7 µM [inhibitor, single point]"
CC(=O)N(c1ccc2oc(=O)sc2c1)S(=O)(=O)c1ccc(C(=O)O)cc1,,"inconclusive: 26.7 µM [inhibitor, partial curve]"
CCOC(=O)c1cnc2ccc(C(=O)OC)cc2c1NCCc1ccc(OC)c(OC)c1,,"inconclusive: 21.2 µM [inhibitor, single point]"
COc1ccc(/C=C(\C#N)C(=O)Nc2cc(S(=O)(=O)N3CCOCC3)ccc2N2CCCC2)cc1,,active: 6.7 µM
CC1Sc2ccc(S(=O)(=O)CCC(=O)N(C)Cc3ccco3)cc2NC1=O (stereo unspecified),,"inconclusive: 15 µM [inhibitor, partial curve]"
COc1cc(/C=N/Nc2ccc(C)cc2)cc(Br)c1O,,active: 29.9 µM
CC(C)[C@H](NC(N)=O)C(=O)Nc1cccc(S(=O)(=O)N2CCOCC2)c1,,"inconclusive: 18.9 µM [inhibitor, single point]"
CCOc1ccc(/C=N/n2c(COc3ccccc3)n[nH]c2=S)cc1OC,,"inconclusive: 26.7 µM [inhibitor, partial curve]"
O=c1[nH]cc(-c2ccc(Br)cc2)n1Cc1ccccc1,inactive: -24%,
COc1cccc(C(=O)NCCSCc2c(F)cccc2Cl)c1,,active: 21.2 µM
CC(C)(C)Cc1nnc(NS(=O)(=O)c2ccc(F)cc2)s1,,"inconclusive: 29.9 µM [inhibitor, single point]"
CNC(=S)N1CCC(NC(=O)C23CC4CC(CC(C4)C2)C3)CC1,,active: 8.44 µM
Brc1ccc(OCCCOc2cccc3cccnc23)cc1,inactive: -12%,
CN(Cc1cn(Cc2ccc(F)cc2)nn1)C1CN(Cc2cn(Cc3ccc(F)cc3)nn2)S(=O)(=O)C1 (stereo unspecified),inactive: -3.39%,
CC(Nc1ccc(Br)cn1)c1cc(Cl)ccc1O (stereo unspecified),,active: 26.7 µM
O=C(NNC(=S)NC1CCCCC1)c1cccc(S(=O)(=O)Nc2ccccc2Cl)c1,,active: 29.9 µM
Cn1c(=O)c(=O)n(C)c2cc(N3CCOCC3)c(NS(=O)(=O)c3ccc(F)c(Cl)c3)cc21,inactive: -14.4%,
COc1ccc(NS(=O)(=O)c2ccc3oc(Nc4ccc5c(c4)OCCO5)nc3c2)cc1,,"inconclusive: 26.7 µM [inhibitor, single point]"
COc1ccc(S(=O)(=O)N2CCC3CC2c2cc(N4CCOCC4)ccc23)cc1 (stereo unspecified),inactive: -6.76%,
O=C(O)c1[nH]c2ccc(Cl)cc2c1CC(=O)N1CCN(C(=O)c2ccco2)CC1,,"inconclusive: 33.6 µM [inhibitor, partial curve]"

Structure (SMILES),"max response, negative = inhibition",Potency
CCOC(=O)c1c(NC(=S)Nc2ccccc2)sc(C)c1C,,active: 26.7 µM
COc1ccc([N+](=O)[O-])cc1NC(=O)CCN1CCOCC1,,active: 29.9 µM
CCOC(=O)c1c2c3c(c(Cl)ccc3[nH]c1=O)C(=O)c1ccccc1-2,,"inconclusive: 15 µM [inhibitor, partial curve]"
COc1ccc(C(C)(C)C)cc1NC(=S)NCCN1CCOCC1,,active: 23.8 µM
COc1ccc(C(=O)N2c3ccccc3C(=O)OC2c2ccc3c(c2)OCO3)cc1 (stereo unspecified),,"inconclusive: 21.2 µM [inhibitor, partial curve]"
CCCCn1c(N)c(N(CC(C)C)C(=O)C2CCN(S(=O)(=O)c3ccc(C)cc3C)CC2)c(=O)[nH]c1=O,inactive: -8.97%,
NC(=O)CSc1nnc(-c2cccc(S(=O)(=O)N3CCOCC3)c2)n1C1CCCCCC1,,active: 2.99 µM
CN(C)CC1CCC/C(=C\c2ccc(OC(=O)/C=C/c3ccccc3)cc2)C1=O (stereo unspecified),,"inconclusive: 10.6 µM [inhibitor, partial curve]"
O=C(CCNc1ccc(Cc2ccncc2)cc1)c1cccc([N+](=O)[O-])c1,,"inconclusive: 37.7 µM [inhibitor, single point]"
S=c1[nH]cnc2scc(-c3ccc(Br)cc3)c12,,"inconclusive: 18.9 µM [inhibitor, partial curve]"
Cc1ccc2nc(N3C(=O)C(O)=C(C(=O)c4ccc(C)o4)C3c3ccco3)sc2c1 (stereo unspecified),,"inconclusive: 23.8 µM [inhibitor, partial curve]"
CC1CCN(C(=S)c2cccc([N+](=O)[O-])c2)CC1,,"inconclusive: 26.7 µM [inhibitor, partial curve]"
CCOc1ccccc1N(C)C(=O)c1ccc2c(=O)n3c(nc2c1)CCCCC3,,active: 23.8 µM
CCOC(=O)c1c(NC(=O)/C=C/C(=O)O)sc(C)c1-c1ccc(C)c(C)c1,,"inconclusive: 23.8 µM [inhibitor, partial curve]"
O=C1CCCCCN1Cc1ccccc1,,active: 29.9 µM
COc1ccccc1C1CC(=O)n2c(nc(-c3ccccc3)c2-c2ccccc2)S1 (stereo unspecified),,"inconclusive: 26.7 µM [inhibitor, partial curve]"
O=C1c2cccc3c([N+](=O)[O-])ccc(c23)C(=O)N1c1ccc(Cl)cn1,,"inconclusive: 26.7 µM [inhibitor, partial curve]"
CCOC(=O)c1sc(Nc2ccc(Br)cc2)nc1C,inactive: 2.35%,
CCc1cc2c(NCc3ccco3)ncnc2s1,,"inconclusive: 37.7 µM [inhibitor, partial curve]"
CCn1cc(C(=O)N2CCN(C3CCCCC3)CC2)c2cc(OC)c(OC)cc2c1=O,,active: 10.6 µM
Nc1ccccc1Sc1nc2ccccc2[nH]1,,active: 13.4 µM
Cc1ccc(/C=N\NC(=O)c2csnn2)cc1,,"inconclusive: 23.8 µM [inhibitor, partial curve]"
Cc1cccc(S(=O)Cc2ccc(C(=O)N3CCOCC3)o2)c1 (stereo unspecified),,"inconclusive: 26.7 µM [inhibitor, single point]"

# Random excerpt: 3 compounds from above
Structure (SMILES),"max response, negative = inhibition",Potency
Cc1cccc(S(=O)Cc2ccc(C(=O)N3CCOCC3)o2)c1 (stereo unspecified),,"inconclusive: 26.7 µM [inhibitor, single point]"
CCOc1ccccc1N(C)C(=O)c1ccc2c(=O)n3c(nc2c1)CCCCC3,,active: 23.8 µM
COc1ccc(C(=O)N2c3ccccc3C(=O)OC2c2ccc3c(c2)OCO3)cc1 (stereo unspecified),,"inconclusive: 21.2 µM [inhibitor, partial curve]"
